Drawing on paper PMC5996148, this text covers binding signal for 1 sequence.

Chains of the proteins cited; added tags and fusions are not shown. Lines headed by an entry give the natural chain unless they say otherwise; changes in a name come on top.
UniProt Q9BRT6: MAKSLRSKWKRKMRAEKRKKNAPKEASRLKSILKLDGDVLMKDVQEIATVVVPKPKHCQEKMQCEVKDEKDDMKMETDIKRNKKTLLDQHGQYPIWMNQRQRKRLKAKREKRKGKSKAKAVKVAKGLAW

The list shows a part of the results. For some of these results: Construct or isoform of the protein are uncertain.

Among the test systems are C11orf66 (human); C11orf70 (human); C11orf74 (human); C12orf10 (human); C12orf41 (human); C12orf48 (human); C14orf100 (human); C14orf119 (human); C14orf122 (human).
Test in all cases: protein microarray (ProtoArray v5.0), streptavidin-Alexa Fluor 647
What all share (details): 3'-biotin; 20 mM Tris (pH 7.5), 5 mM MgCl2, 100 mM KCl, 0.1% Tween-20, A/T-rich and random oligonucleotide blockers; temperature not stated; high values mean tight binding

The target in a further test is C12orf31 (UniProt Q9BRT6).

For the sequence “GGGGACAGGGGTATGGGGAGGGG [G4-3 biotinylated (CtG)]”, the binding signal in the test with C11orf66 (human) is -0.332 z-score; in the test with C11orf70 (human), -0.313 z-score; in the test on C11orf74 (human) it was -0.335 z-score; in the test on C12orf10 (human), -0.314 z-score; with C12orf31, 3.55 z-score; in the test with C12orf41 (human) it was -0.323 z-score. Further, the binding signal in the test on C12orf48 (human) was -0.342 z-score; in the test with C14orf100 (human), -0.329 z-score; with C14orf119 (human), -0.325 z-score; in the test on C14orf122 (human), -0.332 z-score.
